Experimental data: paper PMC13295548
Results are given in words; binding and its absence hold for the method and conditions named. In cells and extracts the contact can be indirect. Here binding means that the protein was enriched with, or labelled near, the bait; the list need not be complete. Tags and fused reporters may be left off the sequences shown.

T1: FLAG-tagged miP-FERMT3 fusion protein (human)
T1 sequence: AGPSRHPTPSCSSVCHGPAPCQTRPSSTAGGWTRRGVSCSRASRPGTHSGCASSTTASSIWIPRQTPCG

B1: 26S proteasome non-ATPase regulatory subunit 9 (protein, UniProt O00233 1-223)
chain: MSDEEARQSGGSSQAGVVTVSDVQELMRRKEEIEAQIKANYDVLESQKGIGMNEPLVDCEGYPRSDVDLYQVRTARHNIICLQNDHKAVMKQVEEALHQLHARDKEKQARDMAEAHKEAMSRKLGQSESQGPPRAFAKVNSISPGSPASIAGLQVDDEIVEFGSVNTQNFQSLHNIGSVVQHSEGKPLNVTVIRRGEKHQLRLVPTRWAGKGLLGCNIIPLQR
B2: tripartite motif containing 8 (protein, UniProt Q9BZR9 1-551)
chain: MAENWKNCFEEELICPICLHVFVEPVQLPCKHNFCRGCIGEAWAKDSGLVRCPECNQAYNQKPGLEKNLKLTNIVEKFNALHVEKPPAALHCVFCRRGPPLPAQKVCLRCEAPCCQSHVQTHLQQPSTARGHLLVEADDVRAWSCPQHNAYRLYHCEAEQVAVCQYCCYYSGAHQGHSVCDVEIRRNEIRKMLMKQQDRLEEREQDIEDQLYKLESDKRLVEEKVNQLKEEVRLQYEKLHQLLDEDLRQTVEVLDKAQAKFCSENAAQALHLGERMQEAKKLLGSLQLLFDKTEDVSFMKNTKSVKILMDRTQTCTSSSLSPTKIGHLNSKLFLNEVAKKEKQLRKMLEGPFSTPVPFLQSVPLYPCGVSSSGAEKRKHSTAFPEASFLETSSGPVGGQYGAAGTASGEGQSGQPLGPCSSTQHLVALPGGAQPVHSSPVFPPSQYPNGSAAQQPMLPQYGGRKILVCSVDNCYCSSVANHGGHQPYPRSGHFPWTVPSQEYSHPLPPTPSVPQSLPSLAVRDWLDASQQPGHQDFYRVYGQPSTKHYVTS

Molecular target: T1, FLAG-tagged miP-FERMT3 fusion protein (human)
Experiment: affinity purification with mass spectrometry; FLAG-miP-FERMT3 precipitated with anti-FLAG affinity gel from endothelial cell lysates (500 µg, overnight; 50 mmol/L Tris/HCl pH 7.5, 150 mmol/L NaCl, 1% NP-40) three days after adenoviral transduction; LC-MS/MS (DIA); compared to EGFP control

Row | Binder | binding
1 | B1 | binds
2 | B2 | binds
